# Results from the supplement of paper PMC8728848.
# The list shows a part of the results.
# B1: Sp8391B-bot-388-20-388 (Bacteroides ovatus) (protein)
# chain: GCQNNDENEQHYDNKLFISASNFTKEILFKAGDTNVETGLSVAIAKPEEHDIKVTMSPAPELLSTYKLAYYDETAVLLSEEHYSMPETSTTIKSGSIVSPELPIEFINTGELDIKTTYVLPVTIKSVEGIGVLQSAKTYYYVFRGASLINVVCNISRNRAYPDFKNDSKFNNLTENTMEILFKANSFPNTLNTLMGIESNYLLRIGDATIPNNQLQVATSVNNCTSADLQLESGKWYHVAVAFNKGNVKVYINGVEKLSGSTGKSSVSLGAKHTNEEDGSRCFWVGYSYKDDRYFDGVVSEVRIWNRALTAEEIQATNHFYTIEPESEGLIAYWKFDEGSGTVAKDYSVSGYDLTIEKEPKWESVSLPQ
# Key:
# Experiment in all cases: glycan array binding signal (z-score within array); higher = stronger binding
# Conditions in all cases: glycan notation: IUPAC condensed, linker removed
# [1] = target: Fuc(a1-2)Gal
# Summary of the method: (§1)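 Negative Z-scores can be read as non-binding. The Z-score is calculated within each array and then averaged across arrays of one protein sequence at different concentrations or buffers and across linkers. Arrays, 3228 in all, were curated from the Consortium for Functional Glycomics database and kept only where the protein sequence was available.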
# [2] = target: Fuc(a1-2)Gal(b1-3)GalNAc
# Summary of the method: as §1
# [3] = target: Fuc(a1-2)Gal(b1-3)GalNAc(a1-3)[Fuc(a1-2)]Gal(b1-4)Glc
# Summary of the method: as §1
# [4] = target: Fuc(a1-2)Gal(b1-3)GalNAc(a1-3)[Fuc(a1-2)]Gal(b1-4)GlcNAc
# Summary of the method: as §1
# [5] = target: Fuc(a1-2)Gal(b1-3)GalNAc(b1-3)Gal
# Summary of the method: as §1
# [6] = target: Fuc(a1-2)Gal(b1-3)GalNAc(b1-3)Gal(a1-4)Gal(b1-4)Glc
# Summary of the method: as §1
# [7] = target: Fuc(a1-2)Gal(b1-3)GalNAc(b1-4)[Neu5Ac(a2-3)]Gal(b1-4)Glc
# Summary of the method: as §1
# [8] = target: Fuc(a1-2)Gal(b1-3)GlcNAc
# Summary of the method: as §1
# [9] = target: Fuc(a1-2)Gal(b1-3)GlcNAc(b1-2)Man(a1-3)[Fuc(a1-2)Gal(b1-3)GlcNAc(b1-2)Man(a1-6)]Man(b1-4)GlcNAc(b1-4)GlcNAc
# Summary of the method: as §1
# [10] = target: Fuc(a1-2)Gal(b1-3)GlcNAc(b1-2)Man(a1-3)[Fuc(a1-2)Gal(b1-3)GlcNAc(b1-2)Man(a1-6)]Man(b1-4)GlcNAc(b1-4)[Fuc(a1-6)]GlcNAc
# Summary of the method: as §1
# [11] = target: Fuc(a1-2)Gal(b1-3)GlcNAc(b1-3)Gal(b1-4)Glc
# Summary of the method: as §1
# [12] = target: Fuc(a1-2)Gal(b1-3)GlcNAc(b1-3)GalNAc
# Summary of the method: as §1
# [13] = target: Fuc(a1-2)Gal(b1-3)GlcNAc(b1-3)[Fuc(a1-2)Gal(b1-3)GlcNAc(b1-6)]GalNAc
# Summary of the method: as §1
# [14] = target: Fuc(a1-2)Gal(b1-3)GlcNAc(b1-3)[Gal(b1-4)GlcNAc(b1-6)]Gal(b1-4)Glc
# Summary of the method: as §1
# [15] = target: Fuc(a1-2)Gal(b1-3)GlcNAc(b1-3)[Neu5Ac(a2-6)Gal(b1-4)GlcNAc(b1-6)]Gal(b1-4)Glc
# Summary of the method: as §1
# [16] = target: Fuc(a1-2)Gal(b1-3)GlcNAc6S
# Summary of the method: as §1
# [17] = target: Fuc(a1-2)Gal(b1-3)[Fuc(a1-4)]GlcNAc
# Summary of the method: as §1
# [18] = target: Fuc(a1-2)Gal(b1-3)[Fuc(a1-4)]GlcNAc(b1-2)Man(a1-3)[Fuc(a1-2)Gal(b1-3)[Fuc(a1-4)]GlcNAc(b1-2)Man(a1-3)]Man(b1-4)GlcNAc(b1-4)GlcNAc
# Summary of the method: as §1
# [19] = target: Fuc(a1-2)Gal(b1-3)[Fuc(a1-4)]GlcNAc(b1-2)Man(a1-3)[Fuc(a1-2)Gal(b1-3)[Fuc(a1-4)]GlcNAc(b1-2)Man(a1-6)]Man(b1-4)GlcNAc(b1-4)[Fuc(a1-6)]GlcNAc(b1-4)[Fuc(a1-6)]GlcNAc
# Summary of the method: as §1
# [20] = target: Fuc(a1-2)Gal(b1-3)[Fuc(a1-4)]GlcNAc(b1-3)[Fuc(a1-3)[Gal(b1-4)]GlcNAc(b1-6)]Gal(b1-4)Glc
# Summary of the method: as §1
# [21] = target: Fuc(a1-2)Gal(b1-3)[Fuc(a1-4)]GlcNAc(b1-3)[Gal(b1-4)GlcNAc(b1-6)]Gal(b1-4)Glc
# Summary of the method: as §1
# [22] = target: Fuc(a1-2)Gal(b1-4)Glc
# Summary of the method: as §1
# [23] = target: Fuc(a1-2)Gal(b1-4)Glc6S
# Summary of the method: as §1
# [24] = target: Fuc(a1-2)Gal(b1-4)GlcNAc
# Summary of the method: as §1
# [25] = target: Fuc(a1-2)Gal(b1-4)GlcNAc(b1-2)Man
# Summary of the method: as §1
# [26] = target: Fuc(a1-2)Gal(b1-4)GlcNAc(b1-2)Man(a1-3)[Fuc(a1-2)Gal(b1-4)GlcNAc(b1-2)Man(a1-6)]Man(b1-4)GlcNAc(b1-4)GlcNAc
# Summary of the method: as §1
# [27] = target: Fuc(a1-2)Gal(b1-4)GlcNAc(b1-2)Man(a1-3)[Fuc(a1-2)Gal(b1-4)GlcNAc(b1-2)Man(a1-6)]Man(b1-4)GlcNAc(b1-4)[Fuc(a1-6)]GlcNAc
# Summary of the method: as §1
# [28] = target: Fuc(a1-2)Gal(b1-4)GlcNAc(b1-2)[Fuc(a1-2)Gal(b1-4)GlcNAc(b1-4)]Man(a1-3)[Fuc(a1-2)Gal(b1-4)GlcNAc(b1-2)Man(a1-6)]Man(b1-4)GlcNAc(b1-4)GlcNAc
# Summary of the method: as §1
# [29] = target: Fuc(a1-2)Gal(b1-4)GlcNAc(b1-3)Gal(b1-4)GlcNAc
# Summary of the method: as §1
# [30] = target: Fuc(a1-2)Gal(b1-4)GlcNAc(b1-3)Gal(b1-4)GlcNAc(b1-2)Man(a1-3)[Fuc(a1-2)Gal(b1-4)GlcNAc(b1-3)Gal(b1-4)GlcNAc(b1-2)Man(a1-6)]Man(b1-4)GlcNAc(b1-4)GlcNAc
# Summary of the method: as §1
# [31] = target: Fuc(a1-2)Gal(b1-4)GlcNAc(b1-3)Gal(b1-4)GlcNAc(b1-3)Gal(b1-4)GlcNAc
# Summary of the method: as §1
# [32] = target: Fuc(a1-2)Gal(b1-4)GlcNAc(b1-3)GalNAc
# Summary of the method: as §1
# [33] = target: Fuc(a1-2)Gal(b1-4)GlcNAc(b1-3)[Fuc(a1-2)Gal(b1-4)GlcNAc(b1-6)]GalNAc
# Summary of the method: as §1
# [34] = target: Fuc(a1-2)Gal(b1-4)GlcNAc(b1-3)[Fuc(a1-3)[Gal(b1-4)]GlcNAc(b1-6)]Gal(b1-4)Glc
# Summary of the method: as §1
# [35] = target: Fuc(a1-2)Gal(b1-4)GlcNAc(b1-6)GalNAc
# Summary of the method: as §1
# [36] = target: Fuc(a1-2)Gal(b1-4)GlcNAc6S
# Summary of the method: as §1
# [37] = target: Fuc(a1-2)Gal(b1-4)[Fuc(a1-3)]GlcNAc
# Summary of the method: as §1
# [38] = target: Fuc(a1-2)Gal(b1-4)[Fuc(a1-3)]GlcNAc(b1-2)Man(a1-3)[Fuc(a1-2)Gal(b1-4)[Fuc(a1-3)]GlcNAc(b1-2)Man(a1-6)]Man(b1-4)GlcNAc(b1-4)[Fuc(a1-6)]GlcNAc
# Summary of the method: as §1
# [39] = target: Fuc(a1-2)Gal(b1-4)[Fuc(a1-3)]GlcNAc(b1-2)[Fuc(a1-2)Gal(b1-4)[Fuc(a1-3)]GlcNAc(b1-4)]Man(a1-3)[Fuc(a1-2)Gal(b1-4)[Fuc(a1-3)]GlcNAc(b1-2)Man(a1-6)]Man(b1-4)GlcNAc(b1-4)GlcNAc
# Summary of the method: as §1
# [40] = target: Fuc(a1-2)Gal(b1-4)[Fuc(a1-3)]GlcNAc(b1-3)Gal(b1-4)[Fuc(a1-3)]GlcNAc
# Summary of the method: as §1
# [41] = target: Fuc(a1-2)Gal(b1-4)[Fuc(a1-3)]GlcNAc(b1-3)Gal(b1-4)[Fuc(a1-3)]GlcNAc(b1-3)Gal(b1-4)[Fuc(a1-3)]GlcNAc
# Summary of the method: as §1
# [42] = target: Fuc(a1-2)Gal(b1-4)[Fuc(a1-3)]GlcNAc(b1-3)GalNAc
# Summary of the method: as §1
# [43] = target: Fuc(a1-2)Gal(b1-4)[Fuc(a1-3)]GlcNAc(b1-3)[Neu5Ac(a2-6)Gal(b1-4)GlcNAc(b1-6)]Gal(b1-4)Glc
# Summary of the method: as §1
# [44] = target: Fuc(a1-2)Gal3S(b1-4)GlcNAc
# Summary of the method: as §1
# [45] = target: Fuc(a1-2)Gal6S(b1-3)GlcNAc
# Summary of the method: as §1
binder,measurement,setting,value
B1,glycan array binding signal (z-score),[1],-0.522
same,glycan array binding signal (z-score),[2],-0.893
same,glycan array binding signal (z-score),[3],-0.312
same,glycan array binding signal (z-score),[4],-0.275
same,glycan array binding signal (z-score),[5],0.241
same,glycan array binding signal (z-score),[6],-1.11
same,glycan array binding signal (z-score),[7],0.477
same,glycan array binding signal (z-score),[8],-0.986
same,glycan array binding signal (z-score),[9],2.69
same,glycan array binding signal (z-score),[10],-0.241
same,glycan array binding signal (z-score),[11],0.015
same,glycan array binding signal (z-score),[12],-0.855
same,glycan array binding signal (z-score),[13],1.16
same,glycan array binding signal (z-score),[14],-0.322
same,glycan array binding signal (z-score),[15],-0.282
same,glycan array binding signal (z-score),[16],-0.483
same,glycan array binding signal (z-score),[17],-0.823
same,glycan array binding signal (z-score),[18],1.35
same,glycan array binding signal (z-score),[19],0.399
same,glycan array binding signal (z-score),[20],-0.358
same,glycan array binding signal (z-score),[21],1.29
same,glycan array binding signal (z-score),[22],-0.701
same,glycan array binding signal (z-score),[23],1.62
same,glycan array binding signal (z-score),[24],-0.588
same,glycan array binding signal (z-score),[25],-1.39
same,glycan array binding signal (z-score),[26],0.667
same,glycan array binding signal (z-score),[27],1.1
same,glycan array binding signal (z-score),[28],0.922
same,glycan array binding signal (z-score),[29],0.428
same,glycan array binding signal (z-score),[30],-0.411
same,glycan array binding signal (z-score),[31],0.169
same,glycan array binding signal (z-score),[32],-0.606
same,glycan array binding signal (z-score),[33],0.788
same,glycan array binding signal (z-score),[34],0.172
same,glycan array binding signal (z-score),[35],0.145
same,glycan array binding signal (z-score),[36],0.092
same,glycan array binding signal (z-score),[37],-0.307
same,glycan array binding signal (z-score),[38],-0.325
same,glycan array binding signal (z-score),[39],0.302
same,glycan array binding signal (z-score),[40],-0.681
same,glycan array binding signal (z-score),[41],0.611
same,glycan array binding signal (z-score),[42],0.086
same,glycan array binding signal (z-score),[43],0.719
same,glycan array binding signal (z-score),[44],-0.05
same,glycan array binding signal (z-score),[45],0.457

# Random excerpt: 4 entries already listed, in no set order.
binder,measurement,setting,value
B1,glycan array binding signal (z-score),[32],-0.606
same,glycan array binding signal (z-score),[13],1.16
same,glycan array binding signal (z-score),[11],0.015
same,glycan array binding signal (z-score),[45],0.457
